This is an account of results in PMC12431501.

No constants are given. Whether binding was seen depends on the method and setting.

Common to all, as to test: two-hybrid; ProQuest Two-Hybrid System with Gateway Technology; full-length cDNAs in bait (pDEST32) and prey (pDEST22) vectors; yeast strain MaV203
The target in assay [1] is T1, OsS1Fa2 (site 1 binding factor a2) (rice (Oryza sativa)) (UniProt Q7XLX6).
T1 sequence: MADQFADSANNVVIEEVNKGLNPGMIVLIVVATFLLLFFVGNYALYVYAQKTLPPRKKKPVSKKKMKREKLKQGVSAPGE

In assay [2] the target is T2, OsMIF2 (mini zinc finger 2) (rice (Oryza sativa)) (UniProt B9GBM3).
T2 sequence: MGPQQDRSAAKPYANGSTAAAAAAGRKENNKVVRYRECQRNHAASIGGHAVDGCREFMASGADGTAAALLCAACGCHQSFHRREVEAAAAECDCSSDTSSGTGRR

Assay [3] has as its target T3, OsS1Fa1 (site 1 binding factor a1) (rice (Oryza sativa)) (UniProt P42553).
T3 sequence: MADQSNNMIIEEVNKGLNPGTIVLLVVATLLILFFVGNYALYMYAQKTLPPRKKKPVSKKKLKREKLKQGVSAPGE

For assay [4], the target named is T4, OsMIF1 (mini zinc finger 1) (rice (Oryza sativa)) (UniProt Q2RB28).
T4 sequence: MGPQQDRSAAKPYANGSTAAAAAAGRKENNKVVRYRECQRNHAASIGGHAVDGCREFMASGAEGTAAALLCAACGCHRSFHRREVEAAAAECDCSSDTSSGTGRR

In assay [5] the target is T5, OsbZIP58 (bZIP transcription factor 58) (rice (Oryza sativa)) (UniProt Q6ZLB0).
T5 sequence: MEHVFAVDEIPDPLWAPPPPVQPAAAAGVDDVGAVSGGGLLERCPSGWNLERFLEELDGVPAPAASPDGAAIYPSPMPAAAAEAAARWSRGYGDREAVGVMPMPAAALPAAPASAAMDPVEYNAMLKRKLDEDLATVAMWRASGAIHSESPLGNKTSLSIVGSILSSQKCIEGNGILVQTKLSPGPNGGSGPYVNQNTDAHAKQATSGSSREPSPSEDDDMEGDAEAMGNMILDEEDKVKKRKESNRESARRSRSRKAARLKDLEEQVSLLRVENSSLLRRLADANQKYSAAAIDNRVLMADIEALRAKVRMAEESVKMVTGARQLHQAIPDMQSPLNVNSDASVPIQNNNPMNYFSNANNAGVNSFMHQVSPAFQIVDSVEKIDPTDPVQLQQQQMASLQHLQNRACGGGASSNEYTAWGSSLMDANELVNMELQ

Assay [6] concerns the target OsMYB24 (R2R3-MYB transcription factor 24) (rice (Oryza sativa)).
The target of assay [7] is OsICE2 (Inducer of CBF expression 2) (rice (Oryza sativa)).
Assay [8] addresses OsGZF1 (GluB-1-binding Zinc Finger 1) (rice (Oryza sativa)).

For the molecule “OsGATA8 (GATA transcription factor 8) (rice (Oryza sativa))”, the binding result in assay [1], in assay [2], in assay [3], in assay [4] and in assay [5] was “no binding” in each case.

Regarding “OsGZF1 (GluB-1-binding Zinc Finger 1) (rice (Oryza sativa))”, the binding entry in assay [1], in assay [3] and in assay [5] was “no binding” throughout.

B1: OsS1Fa2 (site 1 binding factor a2) (protein, UniProt Q7XLX6 1-80)
chain: MADQFADSANNVVIEEVNKGLNPGMIVLIVVATFLLLFFVGNYALYVYAQKTLPPRKKKPVSKKKMKREKLKQGVSAPGE
For B1, the binding result in assay [6] and in assay [7] was “no binding” in each case.

B2: OsS1Fa1 (site 1 binding factor a1) (protein, UniProt P42553 1-76)
chain: MADQSNNMIIEEVNKGLNPGTIVLLVVATLLILFFVGNYALYMYAQKTLPPRKKKPVSKKKLKREKLKQGVSAPGE
Regarding B2, the binding entry in assay [6] and in assay [7] was “no binding” in each case.

B3: OsbZIP58 (bZIP transcription factor 58) (protein, UniProt Q6ZLB0 1-436)
chain: MEHVFAVDEIPDPLWAPPPPVQPAAAAGVDDVGAVSGGGLLERCPSGWNLERFLEELDGVPAPAASPDGAAIYPSPMPAAAAEAAARWSRGYGDREAVGVMPMPAAALPAAPASAAMDPVEYNAMLKRKLDEDLATVAMWRASGAIHSESPLGNKTSLSIVGSILSSQKCIEGNGILVQTKLSPGPNGGSGPYVNQNTDAHAKQATSGSSREPSPSEDDDMEGDAEAMGNMILDEEDKVKKRKESNRESARRSRSRKAARLKDLEEQVSLLRVENSSLLRRLADANQKYSAAAIDNRVLMADIEALRAKVRMAEESVKMVTGARQLHQAIPDMQSPLNVNSDASVPIQNNNPMNYFSNANNAGVNSFMHQVSPAFQIVDSVEKIDPTDPVQLQQQQMASLQHLQNRACGGGASSNEYTAWGSSLMDANELVNMELQ
Turning to B3, the binding entry in assay [6] and in assay [7] was “no binding” throughout.

B4: OsMIF1 (mini zinc finger 1) (protein, UniProt Q2RB28 1-105)
chain: MGPQQDRSAAKPYANGSTAAAAAAGRKENNKVVRYRECQRNHAASIGGHAVDGCREFMASGAEGTAAALLCAACGCHRSFHRREVEAAAAECDCSSDTSSGTGRR
As for B4, the binding entry in assay [6], in assay [7] and in assay [8] was “no binding” in each case.

B5: OsMIF2 (mini zinc finger 2) (protein, UniProt B9GBM3 1-105)
chain: MGPQQDRSAAKPYANGSTAAAAAAGRKENNKVVRYRECQRNHAASIGGHAVDGCREFMASGADGTAAALLCAACGCHQSFHRREVEAAAAECDCSSDTSSGTGRR
With B5, the binding result in assay [6], in assay [7] and in assay [8] was “no binding” each time.
